Measured values: paper doi:10.1101/2025.05.28.656718
Like-named read-outs stand apart in the source and are kept apart here. Results are given in words; binding and its absence hold for the method and conditions named. Binding seen in cells or lysates may run through a third protein. Some entries that bind do so weakly or less than the wild type. Tags and fused reporters may be left off the sequences shown.

Protein sequences, listed by entry. Tags and fused reporters are not part of them. Lines headed by an entry give the natural chain unless they say otherwise; changes in a name come on top. Residues count along the entry.
UniProt P14618, 389-531: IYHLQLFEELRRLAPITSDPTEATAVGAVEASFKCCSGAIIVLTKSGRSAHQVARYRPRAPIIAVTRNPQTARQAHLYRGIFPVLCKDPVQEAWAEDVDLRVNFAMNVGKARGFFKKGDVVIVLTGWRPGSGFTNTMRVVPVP
UniProt P14618, whole entry: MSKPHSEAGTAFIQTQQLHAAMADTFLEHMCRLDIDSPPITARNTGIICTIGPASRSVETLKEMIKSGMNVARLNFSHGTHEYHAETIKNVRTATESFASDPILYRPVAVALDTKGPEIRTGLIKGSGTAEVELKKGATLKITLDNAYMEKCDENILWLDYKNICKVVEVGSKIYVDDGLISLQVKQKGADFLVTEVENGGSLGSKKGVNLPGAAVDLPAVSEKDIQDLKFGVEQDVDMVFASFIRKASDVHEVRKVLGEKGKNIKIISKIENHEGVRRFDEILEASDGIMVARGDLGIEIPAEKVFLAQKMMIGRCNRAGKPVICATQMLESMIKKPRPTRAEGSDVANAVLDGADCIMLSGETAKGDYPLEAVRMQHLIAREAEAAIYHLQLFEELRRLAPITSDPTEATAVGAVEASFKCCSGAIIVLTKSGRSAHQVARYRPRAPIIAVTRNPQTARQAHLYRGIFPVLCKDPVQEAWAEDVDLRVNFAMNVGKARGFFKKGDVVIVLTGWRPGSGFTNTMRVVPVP

Legend:
Assay in all cases: co-IP
[1] = molecular target: FLAG-PKM1, full length (residues 1-531) (human) (UniProt P14618)
[2] = molecular target: FLAG-PKM1-CTD (residues 389-531) (human) (UniProt P14618)
[3] = molecular target: FLAG-PKM2, full length (residues 1-531) (human) (UniProt P14618)
[4] = molecular target: FLAG-PKM2-CTD (residues 389-531) (human) (UniProt P14618)
[5] = molecular target: HaloTag-N58-PKM1-FLAG (human) (UniProt P14618)
[6] = molecular target: FLAG-PKM1, full length (residues 1-531) (human) (UniProt P14618); remark: listed apart in the source
[7] = molecular target: FLAG-PKM1, full length (residues 1-531) (human) (UniProt P14618); remark: listed apart in the source
FLAG-PKM2-Q393K (human) = FLAG-PKM2-Q393K (human) (UniProt P14618)
FLAG-PKM2-R399E (human) = FLAG-PKM2-R399E (human) (UniProt P14618)

Measured: binding

B1: Doxycycline-inducible, untagged SARM1 (protein, UniProt Q6SZW1 28-724)
chain: LAVPGPDGGGGTGPWWAAGGRGPREVSPGAGTEVQDALERALPELQQALSALKQAGGARAVGAGLAEVFQLVEEAWLLPAVGREVAQGLCDAIRLDGGLDLLLRLLQAPELETRVQAARLLEQILVAENRDRVARIGLGVILNLAKEREPVELARSVAGILEHMFKHSEETCQRLVAAGGLDAVLYWCRRTDPALLRHCALALGNCALHGGQAVQRRMVEKRAAEWLFPLAFSKEDELLRLHACLAVAVLATNKEVEREVERSGTLALVEPLVASLDPGRFARCLVDASDTSQGRGPDDLQRLVPLLDSNRLEAQCIGAFYLCAEAAIKSLQGKTKVFSDIGAIQSLKRLVSYSTNGTKSALAKRALRLLGEEVPRPILPSVPSWKEAEVQTWLQQIGFSKYCESFREQQVDGDLLLRLTEEELQTDLGMKSGITRKRFFRELTELKTFANYSTCDRSNLADWLGSLDPRFRQYTYGLVSCGLDRSLLHRVSEQQLLEDCGIHLGVHRARILTAAREMLHSPLPCTGGKPSGDTPDVFISYRRNSGSQLASLLKVHLQLHGFSVFIDVEKLEAGKFEDKLIQSVMGARNFVLVLSPGALDKCMQDHDCKDWVHKEIVTALSCGKNIVPIIDGFEWPEPQVLPEDMQAVLTFNGIKWSHEYQEATIEKIIRFLQGRSSRDSSAGSDTSLEGAAPMGPT
binds: [1] | [2] | [3] | [4]

B2: SARM1-HaloTag-C58 (protein, UniProt Q6SZW1 28-724)
chain: LAVPGPDGGGGTGPWWAAGGRGPREVSPGAGTEVQDALERALPELQQALSALKQAGGARAVGAGLAEVFQLVEEAWLLPAVGREVAQGLCDAIRLDGGLDLLLRLLQAPELETRVQAARLLEQILVAENRDRVARIGLGVILNLAKEREPVELARSVAGILEHMFKHSEETCQRLVAAGGLDAVLYWCRRTDPALLRHCALALGNCALHGGQAVQRRMVEKRAAEWLFPLAFSKEDELLRLHACLAVAVLATNKEVEREVERSGTLALVEPLVASLDPGRFARCLVDASDTSQGRGPDDLQRLVPLLDSNRLEAQCIGAFYLCAEAAIKSLQGKTKVFSDIGAIQSLKRLVSYSTNGTKSALAKRALRLLGEEVPRPILPSVPSWKEAEVQTWLQQIGFSKYCESFREQQVDGDLLLRLTEEELQTDLGMKSGITRKRFFRELTELKTFANYSTCDRSNLADWLGSLDPRFRQYTYGLVSCGLDRSLLHRVSEQQLLEDCGIHLGVHRARILTAAREMLHSPLPCTGGKPSGDTPDVFISYRRNSGSQLASLLKVHLQLHGFSVFIDVEKLEAGKFEDKLIQSVMGARNFVLVLSPGALDKCMQDHDCKDWVHKEIVTALSCGKNIVPIIDGFEWPEPQVLPEDMQAVLTFNGIKWSHEYQEATIEKIIRFLQGRSSRDSSAGSDTSLEGAAPMGPT
binds: [5]

B3: SARM1-HA (protein, UniProt Q6SZW1 28-724)
chain: LAVPGPDGGGGTGPWWAAGGRGPREVSPGAGTEVQDALERALPELQQALSALKQAGGARAVGAGLAEVFQLVEEAWLLPAVGREVAQGLCDAIRLDGGLDLLLRLLQAPELETRVQAARLLEQILVAENRDRVARIGLGVILNLAKEREPVELARSVAGILEHMFKHSEETCQRLVAAGGLDAVLYWCRRTDPALLRHCALALGNCALHGGQAVQRRMVEKRAAEWLFPLAFSKEDELLRLHACLAVAVLATNKEVEREVERSGTLALVEPLVASLDPGRFARCLVDASDTSQGRGPDDLQRLVPLLDSNRLEAQCIGAFYLCAEAAIKSLQGKTKVFSDIGAIQSLKRLVSYSTNGTKSALAKRALRLLGEEVPRPILPSVPSWKEAEVQTWLQQIGFSKYCESFREQQVDGDLLLRLTEEELQTDLGMKSGITRKRFFRELTELKTFANYSTCDRSNLADWLGSLDPRFRQYTYGLVSCGLDRSLLHRVSEQQLLEDCGIHLGVHRARILTAAREMLHSPLPCTGGKPSGDTPDVFISYRRNSGSQLASLLKVHLQLHGFSVFIDVEKLEAGKFEDKLIQSVMGARNFVLVLSPGALDKCMQDHDCKDWVHKEIVTALSCGKNIVPIIDGFEWPEPQVLPEDMQAVLTFNGIKWSHEYQEATIEKIIRFLQGRSSRDSSAGSDTSLEGAAPMGPT
not listed: [5]
binds: all other assays above
